PMC5348399

Target: T1, GST-PC-1 (human) (UniProt P55327)
T1 sequence: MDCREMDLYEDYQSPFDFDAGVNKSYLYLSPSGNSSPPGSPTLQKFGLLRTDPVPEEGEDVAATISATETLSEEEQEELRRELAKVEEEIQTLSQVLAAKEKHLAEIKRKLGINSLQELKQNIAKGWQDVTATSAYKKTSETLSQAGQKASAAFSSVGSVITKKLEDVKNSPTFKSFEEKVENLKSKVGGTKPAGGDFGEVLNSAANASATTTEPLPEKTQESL
Assay: pull-down; GST-PC-1 or GST-CHIP on glutathione beads incubated with lysates of transfected HEK293 cells at 4°C for 4-6 h, Western blot; AR with GST-CHIP tested with and without co-expressed HA-PC-1; only the target purified

Myc-AR-484-651 (human) (domain or fragment)
binding: binds

These are yes or no findings as the source states them, for the method shown. In cells and extracts the contact can be indirect. Binding calls can cover weak binding; strength is not graded here. Sequences can lack the tags named with a protein.
